From publication PMC4852720
No constants are given. Whether binding was seen depends on the method and setting. In cells and extracts the contact can be indirect. Here binding means that the protein was enriched with, or labelled near, the bait; the list need not be complete.

Sequences of proteins named here, by UniProt entry; tags and fusion partners are left off.
UniProt Q96GX5: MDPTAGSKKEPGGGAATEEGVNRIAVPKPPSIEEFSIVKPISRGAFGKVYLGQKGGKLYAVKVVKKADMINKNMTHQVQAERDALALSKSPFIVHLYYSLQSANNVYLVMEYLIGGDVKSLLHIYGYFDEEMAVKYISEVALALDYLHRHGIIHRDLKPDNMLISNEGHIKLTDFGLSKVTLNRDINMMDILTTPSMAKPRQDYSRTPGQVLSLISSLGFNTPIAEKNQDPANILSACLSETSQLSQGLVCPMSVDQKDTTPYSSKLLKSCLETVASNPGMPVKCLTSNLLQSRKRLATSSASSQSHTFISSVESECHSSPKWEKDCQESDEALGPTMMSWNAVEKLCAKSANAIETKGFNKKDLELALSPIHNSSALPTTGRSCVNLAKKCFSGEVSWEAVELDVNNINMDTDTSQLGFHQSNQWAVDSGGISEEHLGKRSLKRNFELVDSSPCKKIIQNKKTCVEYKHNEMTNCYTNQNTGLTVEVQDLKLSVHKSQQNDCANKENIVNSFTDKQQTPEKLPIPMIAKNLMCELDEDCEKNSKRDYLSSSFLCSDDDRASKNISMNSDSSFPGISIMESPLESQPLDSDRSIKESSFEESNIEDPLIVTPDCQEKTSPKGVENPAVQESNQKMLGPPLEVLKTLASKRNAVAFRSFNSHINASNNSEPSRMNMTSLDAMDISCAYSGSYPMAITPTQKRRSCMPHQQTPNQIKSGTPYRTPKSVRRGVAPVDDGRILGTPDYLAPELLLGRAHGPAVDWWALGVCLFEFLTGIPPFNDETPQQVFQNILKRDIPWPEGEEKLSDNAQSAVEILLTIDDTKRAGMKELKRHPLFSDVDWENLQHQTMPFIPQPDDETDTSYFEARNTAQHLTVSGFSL
UniProt P62136: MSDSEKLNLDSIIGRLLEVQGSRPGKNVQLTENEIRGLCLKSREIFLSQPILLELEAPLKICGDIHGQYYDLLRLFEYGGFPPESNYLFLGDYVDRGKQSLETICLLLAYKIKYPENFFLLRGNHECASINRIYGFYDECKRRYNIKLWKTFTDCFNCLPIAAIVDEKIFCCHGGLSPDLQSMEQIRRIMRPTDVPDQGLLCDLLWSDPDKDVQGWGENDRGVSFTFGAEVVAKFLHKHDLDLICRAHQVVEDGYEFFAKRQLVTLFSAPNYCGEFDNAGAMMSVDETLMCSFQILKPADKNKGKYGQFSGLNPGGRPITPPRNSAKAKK
UniProt P62140: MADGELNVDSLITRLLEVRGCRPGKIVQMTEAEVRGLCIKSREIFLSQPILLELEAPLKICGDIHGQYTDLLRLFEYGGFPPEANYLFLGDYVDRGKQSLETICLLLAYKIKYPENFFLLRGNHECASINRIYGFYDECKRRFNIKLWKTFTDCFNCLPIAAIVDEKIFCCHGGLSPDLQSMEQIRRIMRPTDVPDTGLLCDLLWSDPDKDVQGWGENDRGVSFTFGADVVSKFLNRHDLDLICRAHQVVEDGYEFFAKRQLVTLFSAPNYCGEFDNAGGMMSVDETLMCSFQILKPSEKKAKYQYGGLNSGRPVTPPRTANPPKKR
UniProt P36873: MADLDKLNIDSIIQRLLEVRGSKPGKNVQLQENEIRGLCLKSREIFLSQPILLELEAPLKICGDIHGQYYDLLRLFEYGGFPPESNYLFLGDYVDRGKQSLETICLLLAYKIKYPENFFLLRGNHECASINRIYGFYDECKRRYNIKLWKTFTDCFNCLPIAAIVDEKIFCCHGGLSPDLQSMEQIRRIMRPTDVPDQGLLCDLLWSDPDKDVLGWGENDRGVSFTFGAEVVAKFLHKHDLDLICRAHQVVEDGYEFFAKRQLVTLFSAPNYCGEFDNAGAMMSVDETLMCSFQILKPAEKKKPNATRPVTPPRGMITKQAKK
UniProt P30153: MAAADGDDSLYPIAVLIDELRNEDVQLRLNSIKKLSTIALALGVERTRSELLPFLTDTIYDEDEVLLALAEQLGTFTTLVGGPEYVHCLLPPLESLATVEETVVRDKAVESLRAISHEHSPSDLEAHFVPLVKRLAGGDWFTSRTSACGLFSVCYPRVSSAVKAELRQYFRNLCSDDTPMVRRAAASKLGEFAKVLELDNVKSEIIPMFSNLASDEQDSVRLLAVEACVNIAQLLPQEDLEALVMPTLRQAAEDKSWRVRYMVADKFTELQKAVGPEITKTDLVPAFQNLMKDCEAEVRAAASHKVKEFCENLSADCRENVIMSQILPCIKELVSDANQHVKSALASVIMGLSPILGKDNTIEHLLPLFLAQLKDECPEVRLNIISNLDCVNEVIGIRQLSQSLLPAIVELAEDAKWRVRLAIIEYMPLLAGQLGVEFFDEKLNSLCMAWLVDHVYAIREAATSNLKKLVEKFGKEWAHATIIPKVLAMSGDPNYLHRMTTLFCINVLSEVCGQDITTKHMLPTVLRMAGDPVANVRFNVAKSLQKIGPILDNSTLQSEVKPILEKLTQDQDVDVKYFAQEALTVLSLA

Target: microtubule-associated serine-threonine-like kinase (MASTL) (human (endogenous in HeLa)) (UniProt Q96GX5)
Assay: affinity purification with mass spectrometry; endogenous MASTL immunoprecipitated from SILAC-labelled HeLa cells ('light': prometaphase arrest in nocodazole; 'heavy': RO3306 for 20 min), mixed 1:1, gel separation, in-gel digest, LC-MS/MS, 1% false discovery rate

binding, binds:
catalytic α subunit of PP1 (PPP1CA) (from UniProt P62136 1-330) (enzyme)
catalytic β subunit of PP1 (PPP1CB) (from UniProt P62140 1-327) (enzyme)
catalytic γ subunit of PP1 (PPP1CC) (from UniProt P36873 1-323) (enzyme)
scaffolding A subunit of PP2A (PPP2R1A) (from UniProt P30153 1-589)
